Data: PMC5317164
Results are given in words; binding and its absence hold for the method and conditions named. Binding seen in cells or lysates may run through a third protein. Binding calls can cover weak binding; strength is not graded here.

Protein sequences, listed by entry. Tags and fused reporters are not part of them. Lines headed by an entry give the natural chain unless they say otherwise; changes in a name come on top.
UniProt P18206: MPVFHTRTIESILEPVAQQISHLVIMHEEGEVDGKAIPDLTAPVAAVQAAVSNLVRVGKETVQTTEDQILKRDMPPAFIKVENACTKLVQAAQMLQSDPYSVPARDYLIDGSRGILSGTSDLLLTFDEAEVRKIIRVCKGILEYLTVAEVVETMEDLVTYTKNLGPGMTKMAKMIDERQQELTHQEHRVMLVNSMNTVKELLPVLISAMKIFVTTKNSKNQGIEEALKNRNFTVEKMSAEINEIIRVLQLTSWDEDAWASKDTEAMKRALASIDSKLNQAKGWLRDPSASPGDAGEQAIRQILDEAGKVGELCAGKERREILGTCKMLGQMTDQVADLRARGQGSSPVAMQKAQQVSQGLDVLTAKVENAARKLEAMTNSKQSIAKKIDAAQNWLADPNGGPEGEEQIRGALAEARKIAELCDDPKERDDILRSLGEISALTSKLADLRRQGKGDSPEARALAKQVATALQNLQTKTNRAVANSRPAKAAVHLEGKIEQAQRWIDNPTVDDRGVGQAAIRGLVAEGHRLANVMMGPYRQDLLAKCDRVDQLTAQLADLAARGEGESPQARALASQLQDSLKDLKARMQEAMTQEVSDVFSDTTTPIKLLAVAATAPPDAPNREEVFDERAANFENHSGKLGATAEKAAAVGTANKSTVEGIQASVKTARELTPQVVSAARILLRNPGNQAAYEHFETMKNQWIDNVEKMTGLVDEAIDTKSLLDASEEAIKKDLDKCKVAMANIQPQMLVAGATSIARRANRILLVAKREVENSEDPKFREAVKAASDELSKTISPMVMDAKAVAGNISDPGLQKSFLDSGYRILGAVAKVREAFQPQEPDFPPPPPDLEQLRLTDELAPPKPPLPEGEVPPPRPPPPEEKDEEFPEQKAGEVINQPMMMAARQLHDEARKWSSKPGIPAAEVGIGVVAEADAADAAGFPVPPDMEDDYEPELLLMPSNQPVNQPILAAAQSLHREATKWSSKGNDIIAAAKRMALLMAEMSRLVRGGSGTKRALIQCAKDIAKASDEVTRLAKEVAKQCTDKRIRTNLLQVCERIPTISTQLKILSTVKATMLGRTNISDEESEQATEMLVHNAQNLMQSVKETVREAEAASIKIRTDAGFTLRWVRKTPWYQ

Molecular target: Human VCL variant M94I (mEmerald fusion) (human) (UniProt P18206)
Test: co-IP; lysates of HEK293 cells transfected for 24 h with VCL (WT, M94I or both) and SCN5A; IP with VCL or SCN5A antibody immobilised on agarose resin (Pierce direct IP kit), 4 °C overnight; Western blot

## Human SCN5A (hNav1.5/hH1C1) (from UniProt Q14524)
  binding: binds
